The target of the experiment is Full length human LILRB1 expressed on HEK 293T cells (human) (UniProt Q8NHL6). Kind of experiment: flow cytometry on HEK 293T cells expressing full length or domain truncated human LILRB1.

Protein sequences, listed by entry. Tags and fused reporters are not part of them. Lines headed by an entry give the natural chain unless they say otherwise; changes in a name come on top.
UniProt Q8NHL6: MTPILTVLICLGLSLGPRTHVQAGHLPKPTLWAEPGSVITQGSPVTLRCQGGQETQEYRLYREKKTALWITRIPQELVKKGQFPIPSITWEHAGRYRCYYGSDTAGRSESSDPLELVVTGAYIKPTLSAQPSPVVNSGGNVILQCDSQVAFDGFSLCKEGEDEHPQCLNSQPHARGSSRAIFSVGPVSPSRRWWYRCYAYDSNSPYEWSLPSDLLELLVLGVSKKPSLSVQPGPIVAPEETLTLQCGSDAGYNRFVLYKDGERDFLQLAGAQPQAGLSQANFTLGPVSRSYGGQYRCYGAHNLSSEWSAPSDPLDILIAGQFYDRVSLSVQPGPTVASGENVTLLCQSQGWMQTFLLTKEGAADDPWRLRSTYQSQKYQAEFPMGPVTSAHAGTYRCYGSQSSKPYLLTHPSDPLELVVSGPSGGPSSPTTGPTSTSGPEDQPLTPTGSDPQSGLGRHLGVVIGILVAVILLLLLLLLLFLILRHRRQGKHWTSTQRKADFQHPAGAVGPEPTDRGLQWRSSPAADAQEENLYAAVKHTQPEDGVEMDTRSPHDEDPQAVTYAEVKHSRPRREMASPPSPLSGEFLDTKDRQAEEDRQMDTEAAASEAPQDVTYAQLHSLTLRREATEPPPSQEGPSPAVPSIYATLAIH

Changes are numbered by the printed parent chain. Results are given in words; binding and its absence hold for the method and conditions named. Some results given as binding are weak or reduced against the parent protein; the word gives no strength.

B1: anti-LILRB1 antibody 30A10 (antibody, V domains shown)
VH: QVQLVESGGGVVQPGRSLRLSCAASGFTFSSYAMHWVRQAPGKGLEWVAIIWFDGSQRYYADSVKGRFTISRDNSRDTLYLQMNSLRAEDTAVYYCARDELTGFDYWGQGTLVTVSS
VL: DIQMTQSPSSLSASVGDRVTISCRASQNIINFLNWYQQKPGKAPKVLIDAASSLRSGVPSRFSGSGSETDFSLTISSLQPEDFATYYCQQSFSTPLTFGGGTKVEIRR
notes: Fully human antibody from XENOMOUSE mice, tested as hybridoma supernatant
Turning to B1, the binding result is reported as “binds”.

B2: anti-LILRB1 antibody 3C1 (antibody, human IgG4, lambda, V domains shown)
VH: EVQLVESGGGLVQPGGSLRLSCAASGFTFSDYDMHWVRQATGKGLEWVATIDTAGDTYYPDSVRGRFTISRENAKNSLSLQMNSLRAGDTAVYFCARDVPGTGFDHWGQGTLVTVSS
VL: SSELTQDPAVSVALGQTVRITCQGDSLRSYYESWYQQKPGQAPVLVIYGKNNRPSGIPDRFSGSISGNTASLTITGTQAEDEADYYCNSRDNSGDHWVFGGGTRLTVLG
notes: Fully human antibody from XENOMOUSE XMG4-K/XMG4-KL mice, tested as hybridoma supernatant
For the molecule B2, the binding result is reported as “binds”.

B3: anti-LILRB1 antibody 19D6 (antibody, V domains shown)
VH: EVQLVESGGGLVQPGESLRLSCAASGFTFSDYDMHWVRQATGKGLEWVSAIDTAGDTYYLGPVKGRFTISRENAKNSLFLHMNSLRVGDTAVYYCIRDSGSSFDYWGQGTLVTVSS
VL: B2 VL with S1T, S29N, I65S, T73I, N88M, N92S, D95N, R104K, L105V
notes: as for B1
For B3, the binding result is recorded as “binds”.

Values taken from US20210301020A1 (Amgen, published 2021).
